B1: S-MIK truncated SOC1 form (peptide)
chain: MVRGKTQMKRIENATSRQVTFSKRRNGLLKKAFELSVLCDAEVSLIIFSPKGKLYEFASSNMQDTIDRYLRHTKDRVSTKPVSEENMQHLKYEAANMMKKIEQLEASKRKLLGEGIGTCSIEELQQIEQQLEKSVKCIRARKTQVFKEQIEQLKQKEKALAAENEKLSEK
modifications: 35S-Met label in the pull-down assay (in vitro translated)
notes: It was fused to GAL4 domain or EYFP half in yeast and BiFC assays; also called SOC1 a-siPEP
B2: SOC1 (SUPPRESSOR OF OVEREXPRESSOR OF CONSTANS 1) transcription factor (other)
chain: MVRGKTQMKRIENATSRQVTFSKRRNGLLKKAFELSVLCDAEVSLIIFSPKGKLYEFASSNMQDTIDRYLRHTKDRVSTKPVSEENMQHLKYEAANMMKKIEQLEASKRKLLGEGIGTCSIEELQQIEQQLEKSVKCIRARKTQVFKEQIEQLKQKEKALAAENEKLSEKWGSHESEVWSNKNQESTGRGDEESSPSSEVETQLFIGLPCSSRK
modifications: 35S-Met label in the pull-down assay (in vitro translated)
notes: Full-size MADS box transcription factor; In yeast two-hybrid it was fused to GAL4 AD or BD (pGADT7/pGBKT7); In BiFC it was fused to a half of EYFP; In the pull-down it was in vitro translated from pGADT7 and 35S-labeled; also called Arabidopsis SOC1; At2g45660

Key:
[1] = target: B2; assay: BiFC (split EYFP fusions) in Arabidopsis protoplasts
Procedure: BiFC assays were carried out as described previously (Hong et al., J. Biol. Chem. 286, 1659-1668, 2011). A full-size SOC1 gene was fused in-frame to the 5′ end of a gene sequence encoding the C-terminal half of EYFP in the pSATN-cEYFP-C1 vector (E3082). Truncated SOC1 gene sequences were fused in-frame to the 5′ end of a gene sequence encoding the N-terminal half of EYFP in the pSATN-nEYFP-C1 vector (E3081). The expression constructs were cotransformed into Arabidopsis protoplasts. Expression of the fusion constructs was monitored by fluorescence microscopy using a Zeiss LSM510 confocal microscope (Carl Zeiss MicroImaging GmbH, Jena, Germany). The BdSOC1 gene constructs were prepared similar to the Arabidopsis SOC1 gene constructs and transiently expressed in Brachypodium protoplasts.

[2] = target: the molecule itself; assay: yeast two-hybrid (GAL4 AD/BD fusions, growth on -QD, beta-Gal)
Procedure: Yeast two-hybrid assays were performed using the BD Matchmaker system (Clontech, Mountain View, Calif.). The pGADT7 vector was used for GAL4 AD (activation domain) fusion, and the pGBKT7 vector was used for GAL4 BD (DNA-binding domain) fusion. The yeast strain AH109 (leu-, trp-, ade-, his-), which has chromosomally integrated reporter genes lacZ and HIS under the control of the GAL1 promoter, was used for transformation. The PCR product of SOC1 gene was digested with EcoRI and BamHI and subcloned into the pGBKT7 and pGADT7 vectors. Transformation of the AH109 cells was carried out according to the manufacturer's instruction. Colonies obtained were streaked on a medium without His, Ade, Leu, and Trp. To confirm the results of cell growth assays, β-galactosidase (β-Gal) assays were also carried out according to the system procedure.

binding result [1]	Binder	binding result [2]
binds	B1	
	B2	binds
